Laboratory results taken from paper PMC6155142, “OCP–FRP protein complex topologies suggest a mechanism for controlling high light tolerance in cyanobacteria” (Nature Communications, 2018).
Positions count from the first letter of the chain named. Names may count otherwise. No constants are given. Whether binding was seen depends on the method and setting. Some results given as binding are weak or reduced against the parent protein; the word gives no strength.

Legend:
[1] = substrate: T1, COCP, individual C-terminal domain of Synechocystis OCP (amino acids 165–317) (Synechocystis sp. PCC 6803) (UniProt P74102); experiment: SEC; redFRPcc or FRP-L49E (50 µM) pre-incubated with OCP^AA (37 µM), ∆NTE^O (6 µM) or COCP (8 µM); Superdex 200 Increase 10/300; 280 nm and carotenoid-specific absorbance; both purified
T1 sequence: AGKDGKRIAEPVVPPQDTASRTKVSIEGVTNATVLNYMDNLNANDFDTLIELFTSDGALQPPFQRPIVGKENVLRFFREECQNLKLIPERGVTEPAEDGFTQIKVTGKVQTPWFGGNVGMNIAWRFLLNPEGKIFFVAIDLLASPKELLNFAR

[2] = target: T2, ∆NTE^O, orange form of Synechocystis OCP lacking the N-terminal extension (residues 1–20) (Synechocystis sp. PCC 6803) (UniProt P74102); experiment: as above
T2 sequence: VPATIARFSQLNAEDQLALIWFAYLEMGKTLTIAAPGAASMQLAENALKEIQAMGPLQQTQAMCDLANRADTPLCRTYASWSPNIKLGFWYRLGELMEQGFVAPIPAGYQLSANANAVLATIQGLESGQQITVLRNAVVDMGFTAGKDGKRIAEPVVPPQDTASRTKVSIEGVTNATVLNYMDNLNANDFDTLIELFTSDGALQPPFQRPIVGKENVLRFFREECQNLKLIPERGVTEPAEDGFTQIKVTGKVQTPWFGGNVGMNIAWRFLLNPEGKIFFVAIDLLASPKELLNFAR

[3] = target: T3, OCP^Y201A/W288A, constantly active mutant of Synechocystis orange carotenoid protein (Synechocystis sp. PCC 6803) (UniProt P74102); experiment: as above
T3 sequence: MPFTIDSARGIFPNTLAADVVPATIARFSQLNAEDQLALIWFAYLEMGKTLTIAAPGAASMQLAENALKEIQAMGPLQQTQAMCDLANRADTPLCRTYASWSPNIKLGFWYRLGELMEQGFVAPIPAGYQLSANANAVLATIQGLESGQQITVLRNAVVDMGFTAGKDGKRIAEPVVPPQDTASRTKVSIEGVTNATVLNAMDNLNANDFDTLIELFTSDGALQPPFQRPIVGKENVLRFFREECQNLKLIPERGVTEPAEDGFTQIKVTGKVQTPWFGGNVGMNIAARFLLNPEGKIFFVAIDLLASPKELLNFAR

[4] = target: T2, ∆NTE^O, orange form of Synechocystis OCP lacking the N-terminal extension (residues 1–20) (Synechocystis sp. PCC 6803); experiment: SEC; fixed low concentration of ∆NTE^O titrated with oxFRPcc or FRPwt (µM per dimer), 100 µl samples, Superdex 200 Increase 10/300, no reducing agents; amplitude of the complex peak fitted with the quadratic equation; apparent Kd; both purified
[5] = substrate: T1, ; experiment: SEC; oxFRPcc mixed with OCP^AA, COCP or ∆NTE^P (Supplementary Figs 4 and 5); 280 nm and carotenoid-specific absorbance; both purified
[6] = target: T3, OCP^Y201A/W288A, constantly active mutant of Synechocystis orange carotenoid protein (Synechocystis sp. PCC 6803); experiment: cross-linking + SEC; kinetics of crosslinking of OCP^AA or ∆NTE^O mixtures with oxFRPcc by 0.1–0.3% glutaraldehyde at room temperature; 30 µl aliquots on Superdex 200 Increase 5/150; both purified
[7] = target: T4, ∆NTE^P, purple form of Synechocystis OCP lacking the N-terminal extension (residues 1–20) (Synechocystis sp. PCC 6803) (UniProt P74102); experiment: SEC; oxFRPcc mixed with OCP^AA, COCP or ∆NTE^P (Supplementary Figs 4 and 5); 280 nm and carotenoid-specific absorbance; both purified
T4 sequence: T2 sequence

[8] = target: T3, OCP^Y201A/W288A, constantly active mutant of Synechocystis orange carotenoid protein (Synechocystis sp. PCC 6803); experiment: as above
[9] = target: T2, ∆NTE^O, orange form of Synechocystis OCP lacking the N-terminal extension (residues 1–20) (Synechocystis sp. PCC 6803); experiment: SAXS; ∆NTE^O alone, curves at 0.4 and 3.11 mg ml^−1 merged; batch mode, 10 °C, SEC buffer with 3% glycerol and 2 mM DTT; both purified

B1: FRP-L49E, monomeric mutant of Synechocystis FRP (protein, UniProt P74103 1-109)
chain: MLQTAEAPWSQAETQSAHALFRKAYQRELDGLLATVQAQASQITQIDDEWKLHDFLSAKRHEIDGKYDDRQSVIIFVFAQLLKEGLVQAEELTFLAADKQSKIKALARL
Question: For B1, which binding [1] is on record?
Answer: no binding (tested: 50 µM FRP-L49E, 8 µM COCP)

Question: What about the binding [2] of the same binder?
Answer: binds weakly

Question: What about the binding [3] of the same binder?
Answer: no binding (tested: 50 µM FRP-L49E, 37 µM OCP^AA)

B2: oxidized FRPcc (L33C/I43C mutant of Synechocystis FRP), disulfide-trapped dimer (natural protein, UniProt P74103 1-109, looked up)
chain: B1 chain with L33C, I43C, E49L
modifications: intersubunit disulfide bridges between C33 and C43
notes: fluorescence recovery protein (FRP) of Synechocystis, residues 1–109, with L33C and I43C; made from the His6-tagged wild-type template; Same polypeptide as m3, but covalently fixed as a dimer that cannot monomerize; 22 N-terminal residues of the construct are absent from 4JDX; also called oxFRPcc; oxFRPcc dimer; source: E. coli T7 SHuffle express, purified in the absence of reducing agents, …
Question: B2 was tested. Which binding [4] did it give?
Answer: binds

Question: What about the binding [5] of the same binder?
Answer: binds

Question: What about the binding [6] of the same binder?
Answer: binds

Question: And the binding [7]?
Answer: binds

Question: And the binding [8]?
Answer: binds

B3: ∆NTE^O, orange form of Synechocystis OCP lacking the N-terminal extension (residues 1–20) (domain or fragment)
chain: T2 sequence
Question: With B3 as the binder, how does the binding [9] read?
Answer: no binding (tested: 0.4, 3.1 (merged) mg ml^−1)
